Reference: PubChem BioAssay AID1671195 (Yale University, 2021)

Aim: 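Regulators of LDL receptor activity judged by labelled LDL uptake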 (primary screen)
System: human Huh7 hepatoma cells
Reagent: siRNA pool against human genes, 18 nM
Duration: about 2 to 2.5 days of knockdown, then 8 h LDL uptake
Challenge: DiI-labelled LDL at 30 µg/ml for 8 h, in lipoprotein-deficient serum medium
Detection: 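Per-cell DiI-LDL intensity by automated imaging; well means scaled to the plate median and given as a robust z-score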
Scale: robust z-score: higher = more LDL uptake after knockdown
Active means: 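a gene counts as active if at least two replicate z-scores exceed ±2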
Shown is one part, drawn at random, of about 22,000 deposited reagents. Over the whole deposit, about 1,510 (6.9%) were called active. 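Active includes knockdowns raising or lowering LDL uptake; positive z-scores mean more uptake, negative mean less.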 Unmarked entries are inactive.

Gene	robust z-score, replicate 1	robust z-score, replicate 2	robust z-score, replicate 3
USP19 (ubiquitin specific peptidase 19)	0.192	0.612	0.274
WDR75 (WD repeat domain 75)	-1.55	-1.74	-1.68
OR4D10 (olfactory receptor family 4 subfamily D member 10)	1.11	1.19	0.595
NALF2 (NALCN channel auxiliary factor 2)	-1.71	-0.275	-0.413
NLGN4Y (neuroligin 4 Y-linked)	0.511	0.981	0.306
TMEM215 (transmembrane protein 215)	0.292	-0.837	-0.141
EZHIP (EZH inhibitory protein)	-0.432	-0.448	-0.64
OR4K5 (olfactory receptor family 4 subfamily K member 5)	0.586	0.894	0.82
RYR3 (ryanodine receptor 3)	0.253	0.251	0.0772
LINC02372 (long independently transcribed non-coding RNA 2372)	0.449	0.45	0.0814
LOC387880 (retired record)	-1.27	-1.52	-1.31
LOC401449 (retired record)	-1.24	-2.22	-1.04
NPTN (neuroplastin)	0.034	0.901	0.17
IVL (involucrin)	-1.8	-2.35	-1.86
ACTG2 (actin gamma 2, smooth muscle)	-1.09	-0.935	-0.482
KBTBD12 (kelch repeat and BTB domain containing 12)	-0.886	-0.78	-0.4
MROH7 (maestro heat like repeat family member 7)	-1.42	-1.47	-1.48
SWSAP1 (SWIM-type zinc finger 7 associated protein 1)	-0.172	-0.74	-0.508
PIH1D1 (PIH1 domain containing 1)	-2.04	-0.0878	-1.72
TUBD1 (tubulin delta 1)	1.06	1.79	1.73
BAIAP2L1 (BAR/IMD domain containing adaptor protein 2 like 1)	-0.685	0.462	-1.17
C12orf75 (chromosome 12 open reading frame 75)	-1.41	-2.01	-1.57
NEURL1B (neuralized E3 ubiquitin protein ligase 1B)	1.58	1.22	0.978
MPZL1 (myelin protein zero like 1)	1.98	0.822	1.79
LOC440046 (retired record)	2.09	1.41	1.49
CASR (calcium sensing receptor)	1.03	1.59	2.45
DNTTIP1 (deoxynucleotidyltransferase terminal interacting protein 1)	1.95 (active)	2.74	2.48
C2orf69 (chromosome 2 open reading frame 69)	0.581	-0.111	0.28
LINC00343 (long independently transcribed non-coding RNA 343)	0.109	-0.956	0.25
YKT6 (YKT6 vesicular SNARE protein)	0.787	0.137	1.27
SNX17 (sorting nexin 17)	-1.78	-1.4	0.294
SPATC1L (spermatogenesis and centriole associated 1 like)	0.547	0.883	0.219
MARCHF1 (membrane associated ring-CH-type finger 1)	-1.06	0.708	-0.00134
SLC25A42	-0.099	-0.383	-0.394
OR1D2 (olfactory receptor family 1 subfamily D member 2)	0.663	0.489	0.225
SLC22A24	0.99	0.504	0.149
TBL1Y (transducin beta like 1 Y-linked)	0.0761	-0.202	-0.327
GARS1-DT (GARS1 divergent transcript)	0.522	0.39	0.179
NUDCD2 (NudC domain containing 2)	-1.05	0.358	0.261
ERCC3 (ERCC excision repair 3, TFIIH core complex helicase subunit)	-0.488	-0.247	-0.433
ZNF786 (zinc finger protein 786)	-1.21	-1.43	-0.964
MGAT4D (MGAT4 family member D)	0.858	0.287	0.761
MSTN (myostatin)	0.317	3.09	1.74
LOC200624 (retired record)	0.718	0.0379	0.681
TLE3 (TLE family member 3, transcriptional corepressor)	0.652	-0.918	-0.86
ST3GAL3 (ST3 beta-galactoside alpha-2,3-sialyltransferase 3)	-0.203	-0.0165	0.166
ANKEF1 (ankyrin repeat and EF-hand domain containing 1)	2.71 (active)	2.48	1.83
EPS8L3 (EPS8 signaling adaptor L3)	0.469	1.41	2.15
MBOAT7	-0.302	-0.363	0.752
TMEM47 (transmembrane protein 47)	-0.73	-0.181	-0.334
GPANK1 (G-patch domain and ankyrin repeats 1)	-0.186	-1.44	0.173
PFKFB1 (6-phosphofructo-2-kinase/fructose-2,6-biphosphatase 1)	-0.124	0.187	0.0858
RDH12 (retinol dehydrogenase 12)	-0.203	-0.67	-0.627
ALDH4A1 (aldehyde dehydrogenase 4 family member A1)	-1.22	-1.08	-1.89
RFX5 (regulatory factor X5)	-0.94	-1.12	-0.966
SLC39A12	-0.0785	-0.296	0.162
METRNL (meteorin like, glial cell differentiation regulator)	-0.986	-0.589	-0.695
ATP6V0E2-AS1 (ATP6V0E2 antisense RNA 1)	-0.0113	0.669	0.459
LOC388917 (retired record)	-0.616	-0.548	-0.464
ZNF547 (zinc finger protein 547)	0.18	-0.121	0.177
ATP6AP1 (ATPase H+ transporting accessory protein 1)	-1.12	-1.02	-0.978
RBPJ	-0.615	1.31	0.688
CYP2F1 (cytochrome P450 family 2 subfamily F member 1)	2.32 (active)	1.95	1.61
PGGHG (protein-glucosylgalactosylhydroxylysine glucosidase)	-0.857	-0.77	-1.06
DSCAML1 (DS cell adhesion molecule like 1)	-0.46	1.24	1.08
KCNK4 (potassium two pore domain channel subfamily K member 4)	-0.169	0.0848	-0.43
EP400P1 (EP400 pseudogene 1)	-0.73	-0.48	-0.912
AP1M2 (adaptor related protein complex 1 subunit mu 2)	-0.361	-1.15	-1.45
PPIL4 (peptidylprolyl isomerase like 4)	-0.276	-0.113	-0.39
SAMD5 (sterile alpha motif domain containing 5)	-0.485	-1.08	-1.17
PHTF2 (putative homeodomain transcription factor 2)	0.415	0.465	1.03
GRP (gastrin releasing peptide)	-0.278	0.424	-0.0743
OGG1 (8-oxoguanine DNA glycosylase)	-1.9	-1.21	-1.49
CFAP221 (cilia and flagella associated protein 221)	-0.477	-0.324	-0.782
LOC729902	-0.522	-0.426	-0.235
POMP (proteasome maturation protein)	0.579	1.34	0.714
BRAT1 (BRCA1 associated ATM activator 1)	-1.01	-0.37	-0.18
LGALS3BP (galectin 3 binding protein)	-0.583	-1.27	-0.597
RNASEH1 (ribonuclease H1)	-1.36	-0.537	-1.21
CYP8B1 (cytochrome P450 family 8 subfamily B member 1)	-0.716	-0.0309	-0.554
IFT80 (intraflagellar transport 80)	-0.641	-0.759	1.49
AGO4 (argonaute RISC component 4)	1.37	1.13	0.948
DPP3 (dipeptidyl peptidase 3)	0.0378	0.362	0.324
ELMO1 (engulfment and cell motility 1)	-1.17	0.229	-0.212
TNIP3 (TNFAIP3 interacting protein 3)	-0.131	-0.683	-0.506
OR7D2 (olfactory receptor family 7 subfamily D member 2)	-0.661	-0.599	0.0713
EPB41L2 (erythrocyte membrane protein band 4.1 like 2)	-0.985	0.0956	-0.346

14 of these entries in another layout:
Gene,"robust z-score, replicate 1","robust z-score, replicate 2","robust z-score, replicate 3"
NEURL1B (neuralized E3 ubiquitin protein ligase 1B),1.58,1.22,0.978
MPZL1 (myelin protein zero like 1),1.98,0.822,1.79
LOC440046 (retired record),2.09,1.41,1.49
CASR (calcium sensing receptor),1.03,1.59,2.45
DNTTIP1 (deoxynucleotidyltransferase terminal interacting protein 1),1.95 (active),2.74,2.48
C2orf69 (chromosome 2 open reading frame 69),0.581,-0.111,0.28
LINC00343 (long independently transcribed non-coding RNA 343),0.109,-0.956,0.25
YKT6 (YKT6 vesicular SNARE protein),0.787,0.137,1.27
SNX17 (sorting nexin 17),-1.78,-1.4,0.294
SPATC1L (spermatogenesis and centriole associated 1 like),0.547,0.883,0.219
MARCHF1 (membrane associated ring-CH-type finger 1),-1.06,0.708,-0.00134
SLC25A42,-0.099,-0.383,-0.394
OR1D2 (olfactory receptor family 1 subfamily D member 2),0.663,0.489,0.225
SLC22A24,0.99,0.504,0.149
